These are yes or no findings as the source states them, for the method shown. Some binding calls cover weakened binding; strength is not graded here. Values belong to the binder of their own block, whether it stands above or below them.
What was measured:
[1] = biological target: chimeric 2H7 anti-CD20 antibody; assay: blocking of chimeric 2H7 binding to WIL2 cells
[2] = biological target: parent mouse anti-CD20 antibody (murine 2H7); assay: sandwich ELISA, 8C5 coat, biotinylated 8A3 detection
[3] = biological target: v16 as 'mouse 2H7 variant' (Example 4, FIG. 16); assay: sandwich ELISA, 8C5 coat, biotinylated 8A3 detection, mouse serum
[4] = biological target: humanized 2H7 variant v114; assay: as above
[5] = biological target: mouse anti-CD20 IgG that had the same variable domain as the parent mouse anti-CD20 antibody; assay: sandwich ELISA, 8A3 coat, biotinylated 8A3 detection
[6] = biological target: mouse anti-CD20 IgG that had the same variable domain as the parent mouse anti-CD20 antibody; assay: ELISA, 8A3 Fab coat, anti-mouse IgG Fc-HRP detection
[7] = biological target: anti-idiotypic antibody 8A3; assay: sandwich ELISA in mouse serum, 8C5 coat + 2H7 + 8A3-bio; the signal needs binding to both 8C5 and 8A3
[8] = biological target: anti-idiotypic antibody 8A3; assay: sandwich ELISA, 8C5 coat, biotinylated 8A3 and streptavidin-HRP detection; the signal needs binding to both 8C5 and 8A3

binding [7]: binds
B3: v16 as 'mouse 2H7 variant' (Example 4, FIG. 16) (antibody, V domains shown)
VH: DIQMTQSPSSLSASVGDRVTITCRASSSVSYMHWYQQKPGKAPKPLIYAPSNLASGVPSRFSGSGSGTDFTLTISSLQPEDFATYYCQQWSFNPPTFGQGTKVEIKR
VL: EVQLVESGGGLVQPGGSLRLSCAASGYTFTSYNMHWVRQAPGKGLEWVGAIYPGNGDTSYNQKFKGRFTISVDKSKNTLYLQMNSLRAEDTAVYYCARVVYYSNSYWYFDVWGQGTLVTVSS

binding [7]: binds
B4: humanized 2H7 variant v114 (antibody, human IgG1, kappa, V domains shown)
VH: EVQLVESGGGLVQPGGSLRLSCAASGYTFTSYNMHWVRQAPGKGLEWVGAIYPGNGATSYNQKFKGRFTISVDKSKNTLYLQMNSLRAEDTAVYYCARVVYYSASYWYFDVWGQGTLVTVSS
VL: DIQMTQSPSSLSASVGDRVTITCRASSSVSYLHWYQQKPGKAPKPLIYAPSNLASGVPSRFSGSGSGTDFTLTISSLQPEDFATYYCQQWAFNPPTFGQGTKVEIKR

binding [8]: binds
B5: parent mouse anti-CD20 antibody (murine 2H7) (antibody, V domains shown)
VH: QAYLQQSGAELVRPGASVKMSCKASGYTFTSYNMHWVKQTPRQGLEWIGAIYPGNGDTSYNQKFKGKATLTVDKSSSTAYMQLSSLTSEDSAVYFCARVVYYSNSYWYFDVWGTGTTVTVSS
VL: QIVLSQSPAILSASPGEKVTMTCRASSSVSYMHWYQQKPGSSPKPWIYAPSNLASGVPARFSGSGSGTSYSLTISRVEAEDAATYYCQQWSFNPPTFGAGTKLELKR

Continued, binder first:

B1: anti-idiotypic antibody 8A3 (antibody, V domains shown)
VH: QVQLQQSGAELAKPGASVKMSCKASGYNFTTYWMHWVKQRPGQGLEWIGYINPSTDYTEYNQKFKYKATLTADKSSSTAYIQLSSLTSEDSAVYYCARWWDYDWYFDVWGAGTPLTVSS
VL: DIVMTQSQEFMSTSVGDRVSVTCKASQTVDTNVAWYQQKLGQSPKPLIYSASYRCSGVPDRFTGSGSRTDFTLTITNVQSEDLAEYFCQQYHSFPWTFGGGTKVEIKR
binding [1]: binds
binding [2]: binds
binding [3]: binds
binding [4]: binds
binding [5]: binds

B2: 8A3 Fab (Fab, V domains shown)
VH: QVQLQQSGAELAKPGASVKMSCKASGYNFTTYWMHWVKQRPGQGLEWIGYINPSTDYTEYNQKFKYKATLTADKSSSTAYIQLSSLTSEDSAVYYCARWWDYDWYFDVWGAGTPLTVSS
VL: DIVMTQSQEFMSTSVGDRVSVTCKASQTVDTNVAWYQQKLGQSPKPLIYSASYRCSGVPDRFTGSGSRTDFTLTITNVQSEDLAEYFCQQYHSFPWTFGGGTKVEIKR
binding [6]: binds

Source: patent US20070015228A1
